According to patent US20130331325A1:
Results are given in words; binding and its absence hold for the method and conditions named. Some binding calls cover weakened binding; strength is not graded here.

By UniProt entry, the sequences of proteins in these tests, tags left out. Where a name states a change or a piece, a line headed by the entry shows the natural chain unless it says otherwise.
UniProt Q99N32: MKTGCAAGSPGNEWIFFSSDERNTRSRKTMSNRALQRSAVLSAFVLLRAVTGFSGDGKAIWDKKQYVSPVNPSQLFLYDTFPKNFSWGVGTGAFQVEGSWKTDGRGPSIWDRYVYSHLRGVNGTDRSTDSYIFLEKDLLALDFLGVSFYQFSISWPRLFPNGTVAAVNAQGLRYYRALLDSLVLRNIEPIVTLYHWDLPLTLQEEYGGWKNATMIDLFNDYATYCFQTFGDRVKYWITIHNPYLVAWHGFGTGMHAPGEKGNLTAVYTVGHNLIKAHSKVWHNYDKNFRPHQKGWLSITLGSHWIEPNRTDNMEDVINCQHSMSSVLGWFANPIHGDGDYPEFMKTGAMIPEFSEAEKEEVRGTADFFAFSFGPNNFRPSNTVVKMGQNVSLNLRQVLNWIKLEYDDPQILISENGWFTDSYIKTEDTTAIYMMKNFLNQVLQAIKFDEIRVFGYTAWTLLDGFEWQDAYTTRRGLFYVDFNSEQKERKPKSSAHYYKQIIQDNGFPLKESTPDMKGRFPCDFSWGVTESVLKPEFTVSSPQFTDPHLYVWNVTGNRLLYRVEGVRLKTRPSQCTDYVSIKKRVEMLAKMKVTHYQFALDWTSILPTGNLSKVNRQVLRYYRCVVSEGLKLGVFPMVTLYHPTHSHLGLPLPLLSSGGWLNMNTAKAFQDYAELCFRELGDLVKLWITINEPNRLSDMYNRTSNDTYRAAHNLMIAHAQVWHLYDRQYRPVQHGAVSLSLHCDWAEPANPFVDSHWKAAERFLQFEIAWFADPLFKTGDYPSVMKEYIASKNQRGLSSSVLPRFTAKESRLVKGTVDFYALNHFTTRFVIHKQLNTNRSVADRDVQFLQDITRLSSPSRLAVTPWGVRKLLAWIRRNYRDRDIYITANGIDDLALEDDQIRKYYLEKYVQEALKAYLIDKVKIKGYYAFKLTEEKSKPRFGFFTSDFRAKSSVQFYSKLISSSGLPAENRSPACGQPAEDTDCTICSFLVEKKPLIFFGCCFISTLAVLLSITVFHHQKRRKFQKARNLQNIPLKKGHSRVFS
UniProt P11362: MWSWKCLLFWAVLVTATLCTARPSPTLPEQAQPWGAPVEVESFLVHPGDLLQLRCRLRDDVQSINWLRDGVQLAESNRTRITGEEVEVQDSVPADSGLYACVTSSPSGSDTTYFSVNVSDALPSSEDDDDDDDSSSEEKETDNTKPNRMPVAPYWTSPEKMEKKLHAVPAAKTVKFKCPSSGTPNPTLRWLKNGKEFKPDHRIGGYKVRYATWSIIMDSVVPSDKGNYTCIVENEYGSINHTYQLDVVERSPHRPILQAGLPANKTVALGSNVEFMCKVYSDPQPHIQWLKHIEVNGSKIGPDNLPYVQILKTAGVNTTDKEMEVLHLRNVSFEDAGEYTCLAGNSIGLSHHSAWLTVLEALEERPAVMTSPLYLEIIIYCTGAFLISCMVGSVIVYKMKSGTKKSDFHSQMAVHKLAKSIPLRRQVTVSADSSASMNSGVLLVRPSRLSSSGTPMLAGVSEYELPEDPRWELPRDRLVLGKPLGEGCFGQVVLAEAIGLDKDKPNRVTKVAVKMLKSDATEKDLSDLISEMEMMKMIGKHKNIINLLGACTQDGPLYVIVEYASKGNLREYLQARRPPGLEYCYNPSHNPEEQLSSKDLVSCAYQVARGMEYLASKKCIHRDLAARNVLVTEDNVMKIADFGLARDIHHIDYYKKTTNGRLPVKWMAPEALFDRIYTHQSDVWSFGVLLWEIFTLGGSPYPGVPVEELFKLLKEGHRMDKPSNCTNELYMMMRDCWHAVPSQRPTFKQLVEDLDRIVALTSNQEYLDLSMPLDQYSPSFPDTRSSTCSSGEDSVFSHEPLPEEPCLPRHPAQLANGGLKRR
UniProt Q9NSA1: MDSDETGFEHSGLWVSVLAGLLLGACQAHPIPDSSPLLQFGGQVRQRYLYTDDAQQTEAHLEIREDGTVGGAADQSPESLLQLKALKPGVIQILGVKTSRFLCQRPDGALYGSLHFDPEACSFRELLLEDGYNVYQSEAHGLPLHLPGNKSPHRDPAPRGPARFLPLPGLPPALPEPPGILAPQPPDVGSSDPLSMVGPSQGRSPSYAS

Columns and labels:
[1] = target: T1, binary complex of FGFR1c ligand-binding domain with βKlotho ectodomain (murine; human) (UniProt Q99N32+P11362); experiment: SPR competition: increasing FGF21 in solution with a fixed concentration of βKlotho-FGFR1c complex over immobilized FGF21
[2] = target: T1, binary complex of FGFR1c ligand-binding domain with βKlotho ectodomain (murine; human); experiment: SPR competition: increasing FGF21 with a fixed concentration of βKlotho-FGFR1c complex over immobilized FGF21
[3] = target: N-terminally hexahistidine-tagged, mature form of human FGF21 (H29 to S209) (human) (UniProt Q9NSA1); experiment: SPR: βKlotho-FGFR1c complex over immobilized FGF21 (FIGS. 8A-8C)
[4] = target: N-terminally hexahistidine-tagged, mature form of human FGF21 (H29 to S209) (human) (UniProt Q9NSA1); experiment: SPR: βKlotho-FGFR1c complex over immobilized FGF21 (FIGS. 7D-7E)

For “N-terminally hexahistidine-tagged, mature form of human FGF21 (H29 to S209) (from UniProt Q9NSA1 29-209) (ligand)”, the binding [1] was “binds” and the binding [2] was “binds”.
In the case of “binary complex of FGFR1c ligand-binding domain with βKlotho ectodomain (from UniProt Q99N32 53-995; P11362 142-365) (receptor)”, the binding [3] is reported as “binds” and the binding [4] is reported as “binds”.
